Assay results: PMC5762833

Chains of the proteins cited; added tags and fusions are not shown. Lines headed by an entry give the natural chain unless they say otherwise; changes in a name come on top.
UniProt P24557: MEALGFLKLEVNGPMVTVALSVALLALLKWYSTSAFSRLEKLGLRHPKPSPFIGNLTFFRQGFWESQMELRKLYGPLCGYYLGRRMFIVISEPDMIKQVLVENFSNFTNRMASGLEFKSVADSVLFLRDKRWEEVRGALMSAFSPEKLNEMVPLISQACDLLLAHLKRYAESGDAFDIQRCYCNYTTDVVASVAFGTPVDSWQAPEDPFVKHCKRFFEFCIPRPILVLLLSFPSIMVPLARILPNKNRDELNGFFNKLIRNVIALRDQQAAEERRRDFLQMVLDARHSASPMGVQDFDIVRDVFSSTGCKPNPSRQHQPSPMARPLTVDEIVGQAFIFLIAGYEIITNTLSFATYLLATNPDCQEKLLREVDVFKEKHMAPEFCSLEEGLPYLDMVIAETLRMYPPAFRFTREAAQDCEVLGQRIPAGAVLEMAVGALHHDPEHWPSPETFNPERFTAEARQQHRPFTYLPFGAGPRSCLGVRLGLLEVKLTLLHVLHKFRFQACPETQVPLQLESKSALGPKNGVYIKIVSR
UniProt P05181: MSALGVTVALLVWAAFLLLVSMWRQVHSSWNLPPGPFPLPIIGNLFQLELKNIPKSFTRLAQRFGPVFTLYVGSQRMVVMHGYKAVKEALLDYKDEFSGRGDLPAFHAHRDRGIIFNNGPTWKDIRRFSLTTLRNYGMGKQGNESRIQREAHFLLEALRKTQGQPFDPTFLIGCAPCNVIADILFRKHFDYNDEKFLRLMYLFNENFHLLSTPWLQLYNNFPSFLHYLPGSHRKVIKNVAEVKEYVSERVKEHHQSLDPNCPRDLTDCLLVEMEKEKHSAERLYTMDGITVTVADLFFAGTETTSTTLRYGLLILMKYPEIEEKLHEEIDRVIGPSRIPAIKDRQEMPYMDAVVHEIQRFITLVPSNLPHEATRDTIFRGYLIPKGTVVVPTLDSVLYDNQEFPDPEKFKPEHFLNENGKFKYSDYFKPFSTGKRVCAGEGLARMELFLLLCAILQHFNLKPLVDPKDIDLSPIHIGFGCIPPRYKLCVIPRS

Target: Human thromboxane synthase (TBXAS1) (human) (UniProt P24557)
Assay: affinity purification with mass spectrometry; direct molecular fishing: TBXAS1 covalently immobilised on CNBr-Sepharose 4B in a 200 µL microcolumn; human liver tissue lysate passed in HBS-EP+ (10 mM HEPES pH 7.4, 150 mM NaCl, 3 mM EDTA, 0.05% Tween 20) at 15°C; elution with 4% HCOOH (pH 2.5); LC-MS/MS; control column of empty inactivated sorbent; only the target purified

Substance: Cytochrome P450 2E1 (CYP2E1), from human liver tissue lysate (from UniProt P05181 1-493) (enzyme)
- binding: binds

These are yes or no findings as the source states them, for the method shown. In cells and extracts the contact can be indirect. These calls come from enrichment with a bait or labelling near it, and not all partners need be listed.
